Hit rate of the full screen: of about 400,000 compounds, about 5,500 (1.4%) were called active. Inconclusive means that the source gave no clear call. Such entries were picked first, then a sample of the others. Calls follow the shape of the dose curve; as a rule, active = well fitted cell-killing curve with a large enough effect; inconclusive = small, poorly fitted or top-dose-only effect, or effect the other way; inactive = flat fitted curve, though single readings scatter. A potency beside an inconclusive call is a rough fit, not a confirmed value.
Assay: qHTS assay for MDR1-selective chemotherapeutics: Primary screen using the parental adenocarcinoma cell KB-3-1; also: nearly all actives have a fitted effect of over 60% in size
Settings: KB-3-1 viability, CellTiter-Glo ATP luminescence, 72 h; series mostly up to 46.1 µM
In short: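 Cytotoxicity in the drug-sensitive parental line KB-3-1 was scored as loss of CellTiter-Glo luminescence following 72 h incubation with compound. Values come from curve fitting of normalized concentration-response data.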
With `O=C(NCCCN1CCOCC1)C(=O)N/N=C/c1ccc2c(c1)OCO2` the Potency was “inactive”.
With `COc1ccc(C(=O)/C=C/c2cccnc2)c(OC)c1` the Potency was inconclusive: 29.1 µM [cytotoxic, single point].
In the case of `CC12CCC=CC1=C(C=O)C1C2CCC2(C)C(O)CCC12` (centres undefined), the Potency is reported as active: 18.4 µM.
For `Cc1cc(C)c(S(=O)(=O)N2CCCCC2CCNC(=O)C(=O)NCc2ccco2)c(C)c1` (centres undefined), the Potency was inconclusive: 20.6 µM [cytotoxic, single point].
In the case of `O=C(c1ccc2c(c1)N(Cc1ccc(Cl)cc1)C(=O)c1ccccc1S2(=O)=O)N1CCN(Cc2ccccc2)CC1`, the Potency is reported as inconclusive: 23.1 µM [cytotoxic, single point].
In the case of `Cc1cc(C)cc(NC(=O)CCc2c(C)nc3c(c2C)c(=O)n(C)c(=O)n3C)c1`, the Potency is reported as “inactive”.
In the case of `O=C(c1ccc2n[nH]nc2c1)N1CCN(c2ccc(C(F)(F)F)cn2)CC1`, the Potency is reported as inconclusive: 29.1 µM [cytotoxic, single point].
With `CCN(CC)CCn1c(NC(=O)c2ccc(C)cc2)nc2ccccc21` the Potency was inconclusive: 20.6 µM [cytotoxic, single point].
With `Cc1nc2ccc(S(=O)(=O)NC(C(=O)N3CCN(c4cccc(Cl)c4)CC3)C(C)C)cc2s1` (centres undefined) the Potency was “inactive”.
For `CCc1nc2ccc(C(=O)NCc3ccc(OC)cc3)cn2c1N(CCC(C)C)CCN(C)C`, the Potency was “inactive”.
In the case of `Cc1nnc(NC(=O)CCNC(=O)c2ccccc2Cl)s1`, the Potency is reported as inconclusive: 29.1 µM [rising, single point].
In the case of `Nc1cc(=O)[nH]c(SCCSc2cc(Cl)ccc2Cl)n1`, the Potency is reported as active: 0.731 µM.
With `OC(c1ccccc1)(c1nc(-c2cccc3cccnc23)cs1)C(F)(F)F` (centres undefined) the Potency was inconclusive: 29.1 µM [cytotoxic, single point].
In the case of `COC(=O)c1ccc(NC(=O)Nc2ccccc2F)cc1`, the Potency is reported as inconclusive: 29.1 µM [cytotoxic, single point].
For `Cn1c(/C=N/Nc2nc3ccccc3[nH]2)nc2ccccc21`, the Potency was inconclusive: 23.1 µM [cytotoxic, single point].
In the case of `O=S(=O)(c1ccc(Br)cc1)c1nnn2c1nc(NCCc1ccccc1)c1sccc12`, the Potency is reported as inconclusive: 1.3 µM [cytotoxic, full curve].
For `NC(=O)c1cccc(CS(=O)(=O)c2ccc(Cl)cc2)c1`, the Potency was “inactive”.
In the case of `O=C(NC1CCCCC1)C(c1ccccc1F)N(C(=O)c1csnn1)C1CCCC1` (centres undefined), the Potency is reported as inconclusive: 20.6 µM [cytotoxic, single point].
With `Cc1cccc(N(Cc2cc3ccc(C)cc3[nH]c2=O)S(=O)(=O)c2ccccc2)c1` the Potency was inconclusive: 20.6 µM [cytotoxic, single point].
Potency is read from the fitted curve at half-maximal effect.
